Test results: article PMC9392749
Results are given in words; binding and its absence hold for the method and conditions named. Binding seen in cells or lysates may run through a third protein. Some binding calls cover weakened binding; strength is not graded here.

By UniProt entry, the sequences of proteins in these tests, tags left out.
UniProt Q06416: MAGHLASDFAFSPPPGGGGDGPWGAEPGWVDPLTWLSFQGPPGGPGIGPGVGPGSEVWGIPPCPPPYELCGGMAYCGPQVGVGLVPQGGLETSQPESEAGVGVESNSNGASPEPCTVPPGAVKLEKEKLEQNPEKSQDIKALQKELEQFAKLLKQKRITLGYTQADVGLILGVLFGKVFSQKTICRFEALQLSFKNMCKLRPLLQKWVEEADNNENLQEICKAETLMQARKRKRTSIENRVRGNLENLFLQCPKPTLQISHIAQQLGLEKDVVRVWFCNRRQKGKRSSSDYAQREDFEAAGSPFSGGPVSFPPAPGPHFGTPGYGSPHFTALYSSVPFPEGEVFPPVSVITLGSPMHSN

Target: receptor tyrosine kinase (RTK) ERBB2 (human (endogenous in SW480, HT29 and LS1034)) (UniProt P04626)
Experiment: co-IP; lysates of SW480, HT29 and LS1034 cells expressing POU5F1B-HA or GFP; endogenous ERBB2 precipitated with anti-ERBB2 antibody on streptavidin agarose beads overnight at 4 °C; washes with BC100 and BC500 (500 mM KCl); blot with anti-ERBB2 and anti-HA

binding: binds
Substance: HA-tagged POU5F1B (from UniProt Q06416 1-359)
